In paper PMC12040169 (PLOS Biology, 2025):
The list shows a part of the results.

tested on: T1, CTL2-GFP (C. trachomatis L2/434/Bu, GFP-expressing); parameters: species or system HeLa; Intracellular C. trachomatis growth in HeLa cells, bulk GFP fluorescence relative to DMSO; conditions: bulk GFP, single well; 28.5 h, 10 µM; inhibitor
T1 construct: L2/434/Bu, GFP-expressing

Structure (SMILES) | % of control remaining
CC(=O)Nc1cccc(C(=O)NC2CC(=O)N(C3CCCCCC3)C2)c1 (centres unmarked) [CBK307455] | 108.841%
O=c1c2ccccc2nc2n1CCN(Cc1cccs1)CC2 [CBK284815] | 131.819%
COc1cccc2[nH]c(C(=O)N3CCOC(c4cccc(-c5c(F)cccc5F)n4)C3)cc12 (centres unmarked) [CBK285948] | 77.9254%
CCCCCn1c(-c2ccccc2)n[nH]c1=O [CBK013288] | 135.623%
Cc1nc2c(c(=O)[nH]1)CCN(Cc1cn(C(C)C)c3ccccc13)C2 [CBK283991] | 114.195%
CS(=O)(=O)Nc1cc2cccnc2c(-c2ccccc2)n1 [CBK061928] | 124.095%
Cn1c(=O)c2ncn(CC(=O)Nc3cccc(C(=O)O)c3)c2n(C)c1=O [CBK266838] | 94.068%
CC(Nc1cc(Cl)c(C(F)(F)F)cc1[N+](=O)[O-])c1ccc2[nH]c(=O)[nH]c2c1 (centres unmarked) [CBK297721] | 118.47%
COc1cc(CNc2cncc(-c3ccc4c(c3)OCO4)n2)cc(OC)c1OC [CBK065922] | 161.642%
CC(C)(CNC(=O)Cn1cccc(C(=O)NC2CCCCC2)c1=O)c1ccccc1F [CBK286068] | 138.348%
Nc1cccc(-c2cn(C[C@H]3CC4CCN3C[C@@H]4C(=O)NCc3cccnc3)nn2)c1 (some centres unmarked) [CBK289088] | 130.244%
Cc1cc(Cl)c(OCCN2CCC(C)CC2)c(Br)c1 [CBK265088G] | 100%
COC(=O)c1ccc2c(=O)n(CC3CCCO3)c(SCCO)nc2c1 (centres unmarked) [CBK306041] | 134.326%
O=C(NC1CC1)[C@H]1CN2CCC1C[C@@H]2Cn1cc(CC2CCCCC2)nn1 (some centres unmarked) [CBK288739] | 111.822%
COc1ccc(S(=O)(=O)N2CCN(Cc3cc(OC)c(OC)c(OC)c3)CC2)cc1 [CBK263330] | 126.902%
CS(=O)(=O)NCC1(c2ccccc2)CCN(S(=O)(=O)c2ccc(N3CCOCC3)nc2)CC1 [CBK051634] | 83.4257%
O=C1C2(c3ccccc3)CN3CN(C2)CC1(c1ccccc1)C3 [CBK262245] | 115.093%
CC1=C(C(=O)OCC(=O)c2ccc(C)cc2)C2C=C(Br)C=CC2N=C1c1ccc(C)cc1 (centres unmarked) [CBK264079] | 111.519%
Cn1cccc1C(=O)N[C@H]1C[C@@H]2C(=O)N[C@H]3CCN(C(=O)CC(C)(C)C)[C@@H]3C(=O)N2C1 [CBK289271] | 116.411%
CCCn1c(SCC(=O)Nc2scc(-c3cccs3)c2C(=O)OCC)n[nH]c1=O [CBK296967] | 132.54%
Cc1oc(NC(=O)CN2CCN(c3ccc(F)cc3)CC2)c(C#N)c1C [CBK305907] | 117.414%
N#Cc1ccc(CNC2(Cc3cc(-c4ccc(F)cc4)on3)COC2)cc1 [CBK289653] | 146.729%
NC(=O)CN1C(=O)[C@@H]2CCCN2C(=O)c2ccccc21 [CBK283090] | 68.2354%
COCCNCc1ccc(OCc2ccccc2)cc1 [CBK270133C] | 147.105%
O=S(=O)(c1ccccc1Br)N1CCOCC1 [CBK062404] | 115.223%

Structure (SMILES) | % of control remaining
O=c1[nH]c(=O)c2cc(S(=O)(=O)N3CCN(c4ccccn4)CC3)ccc2[nH]1 [CBK286379] | 98.8966%
Cc1ccc(S(=O)(=O)Nc2nc(C)c(C(=O)N3CCN(C)CC3)s2)cc1 [CBK045812] | 118.46%
CCc1ccccc1NC(=S)Nc1cccc(C)n1 [CBK288415] | 97.2331%
CCOc1ccc(Nc2nc(-c3ccc(F)cc3)c(CC(=O)O)s2)cc1 [CBK296064] | 125.843%
CCS(=O)(=O)NC1CCN(c2nc(C(F)(F)F)nc3ccsc23)CC1 [CBK304593] | 105.997%
N#CCCSc1ccn(C2CC(O)C(CO)O2)c(=O)n1 (centres unmarked) [CBK201261] | 180.051%
O=S(=O)(NCc1ccccn1)c1ccc(Br)cc1Br [CBK262291] | 120.248%
CCc1nc2ccc(C(=O)N(C)CCN(C)C)cn2c1N(C)C(=O)Cc1ccccc1 [CBK146858] | 102.999%
c1cncc(CNCc2ccoc2)c1 [CBK001744C] | 128.961%
O=C(Nc1cccc2ncccc12)c1cccc(Oc2ccccc2)c1 [CBK296716] | 97.0224%
CC(C)(C)OC(=O)N1CCCCC1(C)c1nnc(-c2cccnc2)o1 (centres unmarked) [CBK304714] | 122.583%
CCOc1cc(CNC2C3CC4CC(C3)CC2C4)cc(Cl)c1OCC(N)=O (centres unmarked) [CBK265734C] | 244.643%
CC(C)Cc1ccc(S(=O)(=O)Nc2ccc(C(=O)O)cc2)cc1 [CBK297930] | 89.8865%
COC(=O)c1sccc1NC(=O)/C=C/c1ccccc1 [CBK057041] | 135.666%
C=CCNc1nccnc1-c1cnc(OC)nc1OC [CBK036922] | 119.079%
COc1ccc(C(=O)Nc2ccccc2O)cc1S(=O)(=O)N1CCCCC1 [CBK269665] | 120.085%
O=C(COc1ccc2ccccc2c1)Nc1ccc(N2CCN(Cc3ccccc3)CC2)cc1 [CBK266104] | 136.378%
c1cncc(OCCOc2nsnc2N2CCNCC2)c1 [CBK001825G] | 88.4858%
COc1ccc(-c2nnc(SCC(=O)c3ccc(F)cc3)n2C2CCCCC2C)cc1 (centres unmarked) [CBK297494] | 157.468%
CN1CCN(S(=O)(=O)c2cccc3nsnc23)CC1 [CBK062428] | 109.354%
Nc1nc(C2COc3ccccc3O2)ncc1S(=O)(=O)c1ccc(Cl)cc1 (centres unmarked) [CBK074808] | 95.4545%
Cc1csc(NC(=O)c2cc(S(=O)(=O)N3CCCC3)cn2C)n1 [CBK295617] | 131.687%
NNC(=O)COc1ccc2ccccc2c1 [CBK261208] | 116.319%
COc1ccc(Cn2nc(NC(=O)c3cn(C)c4ccccc34)c3ccccc32)cc1 [CBK048344] | 93.0173%
COc1ccccc1NC(=O)C1C2NC(=S)NC1(C)Oc1c(OC)cccc12 (centres unmarked) [CBK269013] | 144.804%

Given tab-delimited: part of the list above.
Structure (SMILES)	% of control remaining
O=C(Nc1cccc2ncccc12)c1cccc(Oc2ccccc2)c1 [CBK296716]	97.0224%
CC(C)(C)OC(=O)N1CCCCC1(C)c1nnc(-c2cccnc2)o1 (centres unmarked) [CBK304714]	122.583%
CCOc1cc(CNC2C3CC4CC(C3)CC2C4)cc(Cl)c1OCC(N)=O (centres unmarked) [CBK265734C]	244.643%
CC(C)Cc1ccc(S(=O)(=O)Nc2ccc(C(=O)O)cc2)cc1 [CBK297930]	89.8865%
COC(=O)c1sccc1NC(=O)/C=C/c1ccccc1 [CBK057041]	135.666%
C=CCNc1nccnc1-c1cnc(OC)nc1OC [CBK036922]	119.079%
COc1ccc(C(=O)Nc2ccccc2O)cc1S(=O)(=O)N1CCCCC1 [CBK269665]	120.085%
O=C(COc1ccc2ccccc2c1)Nc1ccc(N2CCN(Cc3ccccc3)CC2)cc1 [CBK266104]	136.378%
c1cncc(OCCOc2nsnc2N2CCNCC2)c1 [CBK001825G]	88.4858%
COc1ccc(-c2nnc(SCC(=O)c3ccc(F)cc3)n2C2CCCCC2C)cc1 (centres unmarked) [CBK297494]	157.468%
CN1CCN(S(=O)(=O)c2cccc3nsnc23)CC1 [CBK062428]	109.354%
Nc1nc(C2COc3ccccc3O2)ncc1S(=O)(=O)c1ccc(Cl)cc1 (centres unmarked) [CBK074808]	95.4545%
Cc1csc(NC(=O)c2cc(S(=O)(=O)N3CCCC3)cn2C)n1 [CBK295617]	131.687%
